# Measurements reported in article PMC5996148.
# Chains of the proteins cited; added tags and fusions are not shown. Lines headed by an entry give the natural chain unless they say otherwise; changes in a name come on top.
# UniProt Q6P597: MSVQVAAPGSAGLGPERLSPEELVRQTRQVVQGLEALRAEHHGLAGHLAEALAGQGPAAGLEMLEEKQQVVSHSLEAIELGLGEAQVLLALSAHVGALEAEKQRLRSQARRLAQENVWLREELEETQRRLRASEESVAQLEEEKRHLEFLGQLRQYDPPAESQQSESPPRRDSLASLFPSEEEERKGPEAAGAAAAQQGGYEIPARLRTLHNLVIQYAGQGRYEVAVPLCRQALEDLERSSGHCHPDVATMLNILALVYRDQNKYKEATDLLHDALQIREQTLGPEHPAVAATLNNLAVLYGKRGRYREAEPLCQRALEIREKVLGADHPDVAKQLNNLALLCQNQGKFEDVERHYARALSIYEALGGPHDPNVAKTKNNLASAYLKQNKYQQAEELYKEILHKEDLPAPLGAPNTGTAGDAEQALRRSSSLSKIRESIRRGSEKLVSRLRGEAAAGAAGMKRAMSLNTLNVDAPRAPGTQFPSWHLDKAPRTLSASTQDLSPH
# UniProt Q9NSK0: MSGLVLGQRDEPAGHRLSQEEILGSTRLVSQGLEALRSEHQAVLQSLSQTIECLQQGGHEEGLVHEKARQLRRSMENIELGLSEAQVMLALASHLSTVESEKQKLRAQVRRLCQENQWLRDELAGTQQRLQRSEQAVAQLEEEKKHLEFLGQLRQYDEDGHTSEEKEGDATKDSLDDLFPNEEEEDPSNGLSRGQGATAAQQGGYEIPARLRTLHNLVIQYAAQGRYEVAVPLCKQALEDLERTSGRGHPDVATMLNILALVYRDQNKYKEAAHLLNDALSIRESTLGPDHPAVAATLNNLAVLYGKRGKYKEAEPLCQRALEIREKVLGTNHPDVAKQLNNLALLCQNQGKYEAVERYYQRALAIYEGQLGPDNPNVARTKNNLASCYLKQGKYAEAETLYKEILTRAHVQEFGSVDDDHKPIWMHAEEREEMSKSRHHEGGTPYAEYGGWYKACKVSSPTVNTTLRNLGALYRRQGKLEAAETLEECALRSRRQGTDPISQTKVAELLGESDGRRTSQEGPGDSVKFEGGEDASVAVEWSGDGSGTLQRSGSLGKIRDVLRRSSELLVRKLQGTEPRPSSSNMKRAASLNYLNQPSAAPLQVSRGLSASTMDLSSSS
# Where “and” joins values, the source holds several entries; their conditions need not be identical. Equal entries are not always repeated. The list shows a part of the results. For some of these results: Construct or isoform of the protein are uncertain.
# Assays:
# Test in all cases: protein microarray (ProtoArray v5.0), streptavidin-Alexa Fluor 647
# Settings in all cases: 3'-biotin; 20 mM Tris (pH 7.5), 5 mM MgCl2, 100 mM KCl, 0.1% Tween-20, A/T-rich and random oligonucleotide blockers; temperature not stated; high values mean tight binding
# KIR3DX1 (human) = system: KIR3DX1 (human)
# KIS (human) = system: KIS (human)
# KITLG (human) = system: KITLG (human)
# KLC3 = KLC3 (UniProt Q6P597)
# KLC4 = KLC4 (UniProt Q9NSK0)
# KLF12 (human) = system: KLF12 (human)
# KLHDC1 (human) = system: KLHDC1 (human)
# KLHDC2 (human) = system: KLHDC2 (human)
# KLHDC3 (human) = system: KLHDC3 (human)
# KLHL17 (human) = system: KLHL17 (human)
sequence,measurement,setting,value
GGGAGGCTGAGGCAGG [G4-1 biotinylated (PQS2)],binding signal,KIR3DX1 (human),-0.304 z-score
same,binding signal,KIS (human),-0.319 z-score
same,binding signal,KITLG (human),-0.345 z-score and -0.298 z-score
same,binding signal,KLC3,-0.344 z-score
same,binding signal,KLC4,-0.343 z-score
same,binding signal,KLF12 (human),-0.339 z-score
same,binding signal,KLHDC1 (human),-0.331 z-score
same,binding signal,KLHDC2 (human),-0.32 z-score
same,binding signal,KLHDC3 (human),-0.335 z-score
same,binding signal,KLHL17 (human),-0.31 z-score
